Reference: the supplement of paper PMC10849652
The other results are listed elsewhere or left out.

Protein sequences, listed by entry. Tags and fused reporters are not part of them. Lines headed by an entry give the natural chain unless they say otherwise; changes in a name come on top.
UniProt Q9BS91: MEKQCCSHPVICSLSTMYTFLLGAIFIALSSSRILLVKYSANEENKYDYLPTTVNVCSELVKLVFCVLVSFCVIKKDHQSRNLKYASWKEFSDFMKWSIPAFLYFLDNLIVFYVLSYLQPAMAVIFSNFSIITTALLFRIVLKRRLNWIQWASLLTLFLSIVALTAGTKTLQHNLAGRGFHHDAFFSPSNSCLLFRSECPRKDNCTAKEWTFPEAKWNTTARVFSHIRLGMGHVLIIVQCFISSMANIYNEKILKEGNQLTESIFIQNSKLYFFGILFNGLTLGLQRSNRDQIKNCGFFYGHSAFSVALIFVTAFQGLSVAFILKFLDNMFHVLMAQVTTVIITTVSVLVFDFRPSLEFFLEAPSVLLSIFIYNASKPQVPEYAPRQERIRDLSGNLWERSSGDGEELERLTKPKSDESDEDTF
UniProt Q8N755: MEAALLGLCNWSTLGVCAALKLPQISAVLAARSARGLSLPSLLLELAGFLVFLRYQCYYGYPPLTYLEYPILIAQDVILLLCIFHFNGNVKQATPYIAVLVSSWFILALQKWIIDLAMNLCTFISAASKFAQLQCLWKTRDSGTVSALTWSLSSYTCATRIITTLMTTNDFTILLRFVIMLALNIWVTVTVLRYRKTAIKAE
UniProt O95258: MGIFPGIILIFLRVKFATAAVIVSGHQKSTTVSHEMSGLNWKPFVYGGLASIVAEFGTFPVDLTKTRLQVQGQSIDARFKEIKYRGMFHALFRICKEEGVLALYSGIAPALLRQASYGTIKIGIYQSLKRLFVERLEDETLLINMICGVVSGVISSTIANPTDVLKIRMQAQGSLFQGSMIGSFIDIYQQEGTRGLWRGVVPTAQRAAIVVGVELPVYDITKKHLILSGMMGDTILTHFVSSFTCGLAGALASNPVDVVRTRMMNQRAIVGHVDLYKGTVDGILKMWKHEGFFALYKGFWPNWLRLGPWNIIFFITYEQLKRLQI
UniProt Q8N8R3: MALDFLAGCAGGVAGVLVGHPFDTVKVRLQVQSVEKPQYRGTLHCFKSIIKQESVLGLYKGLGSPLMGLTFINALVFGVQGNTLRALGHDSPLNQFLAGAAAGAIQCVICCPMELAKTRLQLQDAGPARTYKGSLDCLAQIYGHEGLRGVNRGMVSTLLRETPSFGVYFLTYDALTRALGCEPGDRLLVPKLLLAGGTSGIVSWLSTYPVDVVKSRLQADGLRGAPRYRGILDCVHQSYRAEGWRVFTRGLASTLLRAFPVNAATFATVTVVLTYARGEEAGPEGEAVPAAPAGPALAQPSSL
UniProt Q6YBV0: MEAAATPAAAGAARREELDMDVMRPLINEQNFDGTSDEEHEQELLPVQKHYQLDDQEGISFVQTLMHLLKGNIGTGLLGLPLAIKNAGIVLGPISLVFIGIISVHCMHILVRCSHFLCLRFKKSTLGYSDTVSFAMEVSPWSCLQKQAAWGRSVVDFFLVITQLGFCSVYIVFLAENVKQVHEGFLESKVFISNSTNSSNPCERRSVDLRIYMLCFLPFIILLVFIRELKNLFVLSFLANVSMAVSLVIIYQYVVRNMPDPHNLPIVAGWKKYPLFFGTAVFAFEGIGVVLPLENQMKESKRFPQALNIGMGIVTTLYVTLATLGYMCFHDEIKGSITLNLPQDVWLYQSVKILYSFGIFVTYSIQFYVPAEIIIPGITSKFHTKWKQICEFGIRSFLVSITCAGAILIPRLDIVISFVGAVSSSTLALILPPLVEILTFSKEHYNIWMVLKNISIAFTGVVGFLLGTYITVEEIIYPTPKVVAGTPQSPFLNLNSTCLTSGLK
UniProt Q9Y2P4: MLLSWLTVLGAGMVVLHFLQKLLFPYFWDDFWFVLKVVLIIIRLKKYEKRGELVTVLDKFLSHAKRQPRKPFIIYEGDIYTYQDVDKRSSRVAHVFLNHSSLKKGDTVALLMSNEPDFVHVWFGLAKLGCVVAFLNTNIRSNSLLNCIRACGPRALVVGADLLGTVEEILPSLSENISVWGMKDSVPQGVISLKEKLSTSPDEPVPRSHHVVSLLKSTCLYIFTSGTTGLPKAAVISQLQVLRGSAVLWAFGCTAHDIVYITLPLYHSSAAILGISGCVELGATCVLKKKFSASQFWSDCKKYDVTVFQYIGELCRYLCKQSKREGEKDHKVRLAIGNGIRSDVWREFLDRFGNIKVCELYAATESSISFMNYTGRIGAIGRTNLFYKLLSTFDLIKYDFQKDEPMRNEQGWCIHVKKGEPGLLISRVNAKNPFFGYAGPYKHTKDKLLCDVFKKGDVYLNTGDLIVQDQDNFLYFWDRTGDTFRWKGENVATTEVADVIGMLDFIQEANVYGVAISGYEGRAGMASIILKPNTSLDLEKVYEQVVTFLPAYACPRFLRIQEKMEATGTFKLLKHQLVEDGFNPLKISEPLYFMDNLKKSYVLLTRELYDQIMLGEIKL
UniProt Q7Z769: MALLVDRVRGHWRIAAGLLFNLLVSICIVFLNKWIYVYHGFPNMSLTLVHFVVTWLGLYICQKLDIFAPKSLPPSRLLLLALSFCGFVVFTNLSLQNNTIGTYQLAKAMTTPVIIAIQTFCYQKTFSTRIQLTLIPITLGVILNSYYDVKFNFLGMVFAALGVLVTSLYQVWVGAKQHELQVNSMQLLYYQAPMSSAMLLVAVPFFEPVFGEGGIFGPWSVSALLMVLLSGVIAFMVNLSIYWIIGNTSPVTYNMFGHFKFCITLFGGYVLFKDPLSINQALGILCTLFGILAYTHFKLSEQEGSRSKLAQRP
UniProt Q96A46: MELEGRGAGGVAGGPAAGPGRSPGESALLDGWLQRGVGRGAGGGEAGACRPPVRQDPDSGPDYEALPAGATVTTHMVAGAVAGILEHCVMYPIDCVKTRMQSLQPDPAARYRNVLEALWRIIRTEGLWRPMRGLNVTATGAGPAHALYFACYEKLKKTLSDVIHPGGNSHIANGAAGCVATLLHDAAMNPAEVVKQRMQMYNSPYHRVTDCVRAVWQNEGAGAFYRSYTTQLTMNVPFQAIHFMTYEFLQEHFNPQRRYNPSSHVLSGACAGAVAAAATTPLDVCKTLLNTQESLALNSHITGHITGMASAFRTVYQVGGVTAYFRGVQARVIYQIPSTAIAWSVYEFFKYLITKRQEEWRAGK
UniProt P14672: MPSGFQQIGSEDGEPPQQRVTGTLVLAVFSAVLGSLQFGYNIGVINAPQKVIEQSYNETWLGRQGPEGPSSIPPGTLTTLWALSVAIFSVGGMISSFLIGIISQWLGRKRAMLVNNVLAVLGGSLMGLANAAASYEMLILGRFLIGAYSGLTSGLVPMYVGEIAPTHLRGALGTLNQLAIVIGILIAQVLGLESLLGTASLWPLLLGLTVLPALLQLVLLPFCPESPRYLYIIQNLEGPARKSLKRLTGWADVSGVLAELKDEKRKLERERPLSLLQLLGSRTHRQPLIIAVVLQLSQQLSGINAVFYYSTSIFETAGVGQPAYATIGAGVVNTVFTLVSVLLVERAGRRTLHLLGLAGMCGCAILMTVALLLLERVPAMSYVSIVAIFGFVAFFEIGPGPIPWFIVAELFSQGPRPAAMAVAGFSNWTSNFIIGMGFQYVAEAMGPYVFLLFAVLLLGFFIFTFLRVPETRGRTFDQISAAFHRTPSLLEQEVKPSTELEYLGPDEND
UniProt P43003, whole entry, looked up: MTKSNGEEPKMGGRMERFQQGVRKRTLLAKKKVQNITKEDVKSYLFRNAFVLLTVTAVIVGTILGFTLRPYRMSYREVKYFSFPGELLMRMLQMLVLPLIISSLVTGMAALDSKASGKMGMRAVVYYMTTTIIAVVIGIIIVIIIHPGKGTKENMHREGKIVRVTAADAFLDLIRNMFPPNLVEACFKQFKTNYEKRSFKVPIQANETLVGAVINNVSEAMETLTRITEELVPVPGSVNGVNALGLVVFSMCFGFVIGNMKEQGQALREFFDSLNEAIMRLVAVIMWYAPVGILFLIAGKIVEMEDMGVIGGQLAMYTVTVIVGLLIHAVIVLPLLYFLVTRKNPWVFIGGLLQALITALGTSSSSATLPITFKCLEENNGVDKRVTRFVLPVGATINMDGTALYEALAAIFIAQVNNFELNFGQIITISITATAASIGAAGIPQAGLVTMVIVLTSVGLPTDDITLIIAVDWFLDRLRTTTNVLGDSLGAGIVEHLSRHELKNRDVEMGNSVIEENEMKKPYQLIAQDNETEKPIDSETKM
UniProt Q9NTN3, whole entry, looked up: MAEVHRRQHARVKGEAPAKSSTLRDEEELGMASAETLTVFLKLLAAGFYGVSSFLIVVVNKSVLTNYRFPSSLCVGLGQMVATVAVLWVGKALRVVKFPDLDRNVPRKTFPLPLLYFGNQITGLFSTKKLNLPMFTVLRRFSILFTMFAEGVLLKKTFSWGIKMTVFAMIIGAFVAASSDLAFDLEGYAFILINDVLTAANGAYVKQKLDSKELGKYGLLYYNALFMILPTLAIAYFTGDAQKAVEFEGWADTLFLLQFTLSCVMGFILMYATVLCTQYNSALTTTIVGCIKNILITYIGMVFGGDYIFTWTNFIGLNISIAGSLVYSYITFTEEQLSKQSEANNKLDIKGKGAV
UniProt P09131: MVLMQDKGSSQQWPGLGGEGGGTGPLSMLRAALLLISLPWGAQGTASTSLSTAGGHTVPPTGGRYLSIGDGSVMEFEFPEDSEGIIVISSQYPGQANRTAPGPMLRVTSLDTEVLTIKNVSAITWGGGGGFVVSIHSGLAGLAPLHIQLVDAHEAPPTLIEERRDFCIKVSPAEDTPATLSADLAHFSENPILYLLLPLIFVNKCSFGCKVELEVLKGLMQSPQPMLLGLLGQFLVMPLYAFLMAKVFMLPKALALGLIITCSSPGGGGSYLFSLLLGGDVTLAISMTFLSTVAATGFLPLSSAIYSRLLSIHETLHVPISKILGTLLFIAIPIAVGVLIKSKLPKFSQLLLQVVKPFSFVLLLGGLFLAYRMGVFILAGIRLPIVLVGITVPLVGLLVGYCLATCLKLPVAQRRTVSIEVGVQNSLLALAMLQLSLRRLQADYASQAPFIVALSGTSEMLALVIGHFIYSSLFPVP
UniProt Q96K37: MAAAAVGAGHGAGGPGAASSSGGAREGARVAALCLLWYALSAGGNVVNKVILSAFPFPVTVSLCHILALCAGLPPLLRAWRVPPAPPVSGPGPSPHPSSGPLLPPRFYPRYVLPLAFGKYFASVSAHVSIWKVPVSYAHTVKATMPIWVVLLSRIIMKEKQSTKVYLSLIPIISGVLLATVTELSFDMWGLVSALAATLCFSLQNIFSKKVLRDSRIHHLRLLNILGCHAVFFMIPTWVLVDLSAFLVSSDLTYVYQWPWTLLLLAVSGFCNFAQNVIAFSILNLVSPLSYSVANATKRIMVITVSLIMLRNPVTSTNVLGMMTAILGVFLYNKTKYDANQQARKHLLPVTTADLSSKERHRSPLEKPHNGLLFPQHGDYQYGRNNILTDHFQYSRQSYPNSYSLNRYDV
UniProt O76082: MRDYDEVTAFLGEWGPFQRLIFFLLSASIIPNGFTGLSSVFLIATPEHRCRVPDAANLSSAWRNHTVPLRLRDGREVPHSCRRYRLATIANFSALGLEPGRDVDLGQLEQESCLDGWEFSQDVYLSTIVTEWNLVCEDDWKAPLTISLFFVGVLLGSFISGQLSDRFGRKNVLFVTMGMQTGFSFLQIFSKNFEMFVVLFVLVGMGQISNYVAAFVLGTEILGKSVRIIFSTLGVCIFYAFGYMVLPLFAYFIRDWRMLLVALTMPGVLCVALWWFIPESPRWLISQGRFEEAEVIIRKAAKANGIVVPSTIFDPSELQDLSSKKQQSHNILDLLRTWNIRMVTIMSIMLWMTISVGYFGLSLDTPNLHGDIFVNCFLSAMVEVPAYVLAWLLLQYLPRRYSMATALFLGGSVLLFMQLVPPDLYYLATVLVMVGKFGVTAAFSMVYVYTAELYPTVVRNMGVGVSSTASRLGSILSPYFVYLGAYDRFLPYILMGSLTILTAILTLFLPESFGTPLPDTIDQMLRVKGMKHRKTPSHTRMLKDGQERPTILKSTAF
UniProt Q8N2U9: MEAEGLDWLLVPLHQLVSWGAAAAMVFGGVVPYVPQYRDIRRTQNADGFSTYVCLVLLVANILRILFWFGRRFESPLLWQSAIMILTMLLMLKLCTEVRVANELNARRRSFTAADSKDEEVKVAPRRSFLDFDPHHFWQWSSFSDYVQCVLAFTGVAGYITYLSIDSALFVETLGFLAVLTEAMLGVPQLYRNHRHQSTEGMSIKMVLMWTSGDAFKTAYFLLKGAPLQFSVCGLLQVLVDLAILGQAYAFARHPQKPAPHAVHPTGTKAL
UniProt Q0GE19: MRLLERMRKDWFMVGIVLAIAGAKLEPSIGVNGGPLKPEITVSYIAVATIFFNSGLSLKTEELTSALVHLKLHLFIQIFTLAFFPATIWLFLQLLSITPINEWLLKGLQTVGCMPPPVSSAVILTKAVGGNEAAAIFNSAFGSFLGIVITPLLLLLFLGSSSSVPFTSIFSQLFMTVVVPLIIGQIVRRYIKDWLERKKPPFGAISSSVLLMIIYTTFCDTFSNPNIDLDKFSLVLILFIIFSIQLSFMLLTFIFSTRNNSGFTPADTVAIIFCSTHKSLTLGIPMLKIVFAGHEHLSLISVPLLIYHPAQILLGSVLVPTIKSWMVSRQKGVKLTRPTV

What was measured:
Assay in all cases: log2 fold change, soluble protein after heating vs DMSO (PISA); higher = thermal stabilisation; K562 cells, 10 uM, 30 min; active = over 0.2 and 3.5 SD of the protein, either way, in both replicates (recomputed)
[1] = compound: C[C@@H]1COCCN1C2=NC(=NC(=C2)C3(CC3)S(=O)(=O)C)C4=C5C=CNC5=CC=C4
Outline: (§1)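 K562 cells at 2×10^6 cells/mL were treated for 30 min with 10 μM compound, and aliquots were heated for 3 min over 48°C-58°C before pooling. Extraction used PBS with 0.5% NP-40 at 4°C, and soluble protein was the supernatant after 21,000xg for 90 min, measured by TMTpro 16plex LC-MS/MS with channel sums equalised. Thermal stability values, relative to control samples and from duplicates, are log2 fold changes.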

[2] = compound: C[C@H](C1=CC=C(C=C1)C(=O)NC2=C3C=CNC3=NC=C2)N
Outline: as §1

duvelisib = compound: C[C@H](Nc1ncnc2nc[nH]c12)c1cc2cccc(Cl)c2c(=O)n1-c1ccccc1 [duvelisib]
Outline: as §1

tozasertib = compound: Cc1cc(Nc2cc(N3CCN(C)CC3)nc(Sc3ccc(NC(=O)C4CC4)cc3)n2)n[nH]1 [tozasertib]
Outline: as §1

[3] = compound: Cc1cc(SCc2sc(-c3ccc(C(F)(F)F)cc3)nc2C)ccc1OCC(=O)O
Outline: as §1

dasatinib = compound: Cc1nc(Nc2ncc(C(=O)Nc3c(C)cccc3Cl)s2)cc(N2CCN(CCO)CC2)n1 [dasatinib]
Outline: as §1

[4] = compound: Cn1cc(-c2ccc3c(c2)CCN3C(=O)Cc2cccc(C(F)(F)F)c2)c2c(N)ncnc21
Outline: as §1

crizotinib = compound: C[C@@H](Oc1cc(-c2cnn(C3CCNCC3)c2)cnc1N)c1c(Cl)ccc(F)c1Cl [crizotinib]
Outline: as §1

doramapimod = compound: Cc1ccc(-n2nc(C(C)(C)C)cc2NC(=O)Nc2ccc(OCCN3CCOCC3)c3ccccc23)cc1 [doramapimod]
Outline: as §1

ispinesib = compound: Cc1ccc(C(=O)N(CCCN)[C@@H](c2nc3cc(Cl)ccc3c(=O)n2Cc2ccccc2)C(C)C)cc1 [ispinesib]
Outline: as §1

bafetinib = compound: Cc1ccc(NC(=O)c2ccc(CN3CC[C@H](N(C)C)C3)c(C(F)(F)F)c2)cc1Nc1nccc(-c2cncnc2)n1 [bafetinib]
Outline: as §1

nilotinib = compound: Cc1cn(-c2cc(NC(=O)c3ccc(C)c(Nc4nccc(-c5cccnc5)n4)c3)cc(C(F)(F)F)c2)cn1 [nilotinib]
Outline: as §1

[5] = compound: Cc1nc(Nc2n[nH]c3c2CN(C(=O)N[C@H](CN(C)C)c2ccccc2)C3(C)C)c2sccc2n1
Outline: as §1

[6] = compound: Cc1ncc(-c2ccnc(Nc3ccc(S(C)(=O)=O)cc3)n2)n1C(C)C
Outline: as §1

[7] = compound: Cn1cc(-c2ccc3nnc(C(F)(F)c4ccc5ncccc5c4)n3n2)cn1
Outline: as §1

tipifarnib = compound: Cn1cncc1[C@@](N)(c1ccc(Cl)cc1)c1ccc2c(c1)c(-c1cccc(Cl)c1)cc(=O)n2C [tipifarnib]
Outline: as §1

mubritinib = compound: FC(F)(F)c1ccc(/C=C/c2nc(COc3ccc(CCCCn4ccnn4)cc3)co2)cc1 [mubritinib]
Outline: as §1

[8] = compound: CS(=O)(=O)c1ccc(-c2cnc(N)c(C(=O)Nc3ccccc3)n2)cc1
Outline: as §1

gandotinib = compound: Cc1cc(Nc2cc(CN3CCOCC3)c3nc(C)c(Cc4ccc(Cl)cc4F)n3n2)n[nH]1 [gandotinib]
Outline: as §1

[9] = compound: Cc1cccc(CC(=O)N2CCc3c2ccc(-c2cn(C)c4ncnc(N)c24)c3F)n1
Outline: as §1

Measured: log2 fold change

SLC35A5 (UniProt Q9BS91)
inactive: [1] -0.085 | [2] -0.02 | duvelisib 0.051 | tozasertib -0.035 | [3] 0.184 | dasatinib 0.03 | [4] 0.045

SLC3A2 (UniProt F5GZS6)
inactive: crizotinib 0.184 | [1] -0.084 | duvelisib -0.055 | tozasertib -0.149 | [3] -0.35 | doramapimod -0.237 | ispinesib 0.362 | bafetinib -0.241 | nilotinib 0.068 | [5] -0.116 | dasatinib 0.26 | [6] 0.041 | [7] -0.224 | tipifarnib 0.187 | mubritinib 0.135

SLC22A4 (UniProt Q9H015)
inactive: [1] 0.063 | [2] -0.121 | duvelisib 0.043 | tozasertib -0.054 | [3] -0.096 | ispinesib 0.043 | dasatinib 0.04 | [4] 0.14 | [7] -0.037 | tipifarnib 0.054

SLC36A1 (UniProt E5RG64)
inactive: bafetinib -0.892

SLC26A11 (UniProt I3L0N9)
inactive: bafetinib 0.094

SLC66A3 (UniProt Q8N755)
inactive: [8] -0.238 | [1] -0.223 | nilotinib -0.045 | [5] -0.211 | [6] 0.075 | mubritinib -0.108

SLC22A23 (UniProt A1A5C7)
inactive: crizotinib 0.042 | [2] -0.353 | duvelisib -0.164 | gandotinib 0.019 | [3] 0.265 | doramapimod 0.013 | ispinesib -0.096 | [9] -0.132 | dasatinib 0.081 | [4] 0.297 | [7] -0.014 | tipifarnib 0.171 | mubritinib -0.044

SLC35C1 (UniProt Q96A29)
inactive: crizotinib -0.044 | [1] -0.365 | [2] 0.036 | duvelisib 0.042 | gandotinib -0.048 | tozasertib 0.04 | [3] 0.074 | doramapimod 0.016 | ispinesib -0.114 | bafetinib -0.002 | [9] -0.062 | nilotinib -0.003 | [5] 0.085 | dasatinib 0.067 | [6] -0.16 | [4] 0.043 | [7] -0.089 | tipifarnib 0.061

SLC35G1 (UniProt Q2M3R5)
inactive: tozasertib 0.034

SLC36A1 (UniProt Q7Z2H8)
inactive: crizotinib 0.133 | duvelisib 0.239 | [3] 0.017 | doramapimod 0.075 | dasatinib 0.035 | mubritinib -0.087

SLC25A14 isoform 3 (UniProt O95258)
inactive: crizotinib -0.043 | [2] -0.254 | duvelisib 0.002 | gandotinib -0.07 | tozasertib -0.025 | [3] -0.049 | doramapimod 0.034 | ispinesib -0.116 | bafetinib -0.094 | [9] 0 | nilotinib 0.042 | [5] -0.049 | dasatinib 0.069 | [6] -0.052 | [4] 0.074 | [7] -0.022 | tipifarnib 0.015 | mubritinib -0.009

SLC15A4 (UniProt Q8N697)
inactive: crizotinib -0.169 | [2] -0.184 | duvelisib -0.071 | tozasertib 0.078 | [3] -0.104 | doramapimod -0.063 | ispinesib -0.268 | bafetinib -0.041 | nilotinib -0.032 | [5] -0.023 | dasatinib 0.12 | [6] 0.167 | [4] 0.079 | [7] 0.029 | tipifarnib 0.092 | mubritinib -0.164

SLC25A29 (UniProt Q8N8R3)
inactive: crizotinib 0.014 | duvelisib 0.015 | tozasertib -0.08 | [3] 0.201 | doramapimod 0.074 | ispinesib -0.344 | dasatinib -0.032 | [7] 0.006 | tipifarnib -0.257

Fetched one by one from the list above, two records:
SLC15A4 (UniProt Q8N697)
inactive: crizotinib -0.169 | [2] -0.184 | duvelisib -0.071 | tozasertib 0.078 | [3] -0.104 | doramapimod -0.063 | ispinesib -0.268 | bafetinib -0.041 | nilotinib -0.032 | [5] -0.023 | dasatinib 0.12 | [6] 0.167 | [4] 0.079 | [7] 0.029 | tipifarnib 0.092 | mubritinib -0.164

SLC35G1 (UniProt Q2M3R5)
inactive: tozasertib 0.034

(continued)

SLC50A1 (UniProt Q9BRV3)
inactive: crizotinib 0 | duvelisib 0.391 | [3] -0.389 | doramapimod -0.011 | ispinesib -0.209 | bafetinib -0.28 | dasatinib 0.542 | [7] -0.073 | tipifarnib 0.238 | mubritinib 0.002

SLC36A4 (UniProt Q6YBV0)
inactive: [1] -0.439 | ispinesib 0.196 | bafetinib 0.025 | [7] -0.145 | mubritinib 0.234

SLC43A3 (UniProt Q8NBI5)
inactive: [8] 0.098 | [1] 0.24 | tipifarnib 0.009

SLC27A6 (UniProt Q9Y2P4)
inactive: [1] 0.077 | [2] -0.208 | tozasertib -0.191 | ispinesib 0.103 | bafetinib -0.095 | nilotinib -0.201 | [5] 0.108 | [6] -0.025 | [4] 0.055 | [7] -0.123 | mubritinib 0.11

SLC35E3 (UniProt Q7Z769)
inactive: [8] -0.276 | [1] 0.244 | duvelisib 0.123 | tozasertib 0.003 | [3] 0.067 | nilotinib -0.164 | [5] -0.103 | dasatinib -0.198 | [6] 0.055 | tipifarnib 0.163

SLC25A28 (UniProt Q96A46)
inactive: [8] -0.012 | bafetinib -0.001 | nilotinib -0.207 | [5] 0.014 | [6] 0.079 | tipifarnib 0.141

SLC2A4 (UniProt P14672)
inactive: [8] -0.077 | [2] -0.048 | gandotinib -0.048 | tozasertib -0.1 | ispinesib -0.22 | bafetinib -0.223 | [9] -0.023 | nilotinib 0.066 | [5] 0.126 | [6] 0.19 | [4] 0.004 | [7] -0.087 | tipifarnib -0.151 | mubritinib 0.084

SLC1A3 (UniProt P43003)
inactive: [1] 0.167 | [2] -0.039 | gandotinib -0.042 | [3] 0.201 | ispinesib 0.126 | bafetinib -0.051 | [9] 0.013 | nilotinib 0.131 | [5] -0.063 | dasatinib -0.203 | [6] -0.077 | [4] 0.133 | [7] -0.009 | tipifarnib 0.054 | mubritinib 0.096

SLC46A1 (UniProt Q96NT5)
inactive: [2] -0.047 | gandotinib -0.006 | [9] -0.016 | [4] -0.119

SLC3A2 (UniProt F5H867)
inactive: [8] -0.024 | [1] 0.094 | duvelisib 0.097 | gandotinib -0.181 | tozasertib -0.114 | [3] -0.175 | bafetinib -0.078 | [9] -0.198 | nilotinib -0.122 | [5] -0.213 | dasatinib 0.053 | [6] -0.182 | tipifarnib 0.058 | mubritinib 0.088

SLC35D1 (UniProt Q9NTN3)
inactive: [2] -0.191 | tozasertib 0.045 | [4] 0 | tipifarnib -0.273

SLC66A1 (UniProt Q6ZP29)
inactive: bafetinib -0.219 | nilotinib 0.134 | [5] 0.079 | [6] -0.039 | mubritinib -0.204

SLC10A3 (UniProt P09131)
inactive: [1] 0.028 | tozasertib -0.092 | bafetinib -0.114 | nilotinib -0.041 | [5] -0.082 | [6] 0.041 | mubritinib -0.152

SLC39A1 (UniProt Q9NY26)
inactive: [2] 0.023 | gandotinib -0.137 | [9] 0.116 | [4] -0.17

SLC31A1 (UniProt O15431)
inactive: crizotinib 0.013 | [1] 0.093 | [2] -0.233 | duvelisib 0.036 | gandotinib -0.013 | tozasertib -0.031 | [3] -0.035 | doramapimod -0.087 | ispinesib -0.037 | bafetinib 0.036 | [9] 0.005 | dasatinib 0.008 | [4] -0.003 | [7] 0.053 | tipifarnib 0.118 | mubritinib -0.022

SLC35E1 (UniProt Q96K37)
inactive: crizotinib -0.099 | [1] 0.019 | [2] -0.021 | duvelisib 0.034 | gandotinib -0.135 | tozasertib 0.061 | [3] -0.069 | doramapimod 0.4 | ispinesib 0.035 | bafetinib 0.029 | [9] 0.063 | nilotinib 0.004 | [5] -0.035 | dasatinib -0.003 | [6] 0.007 | [4] -0.122 | [7] -0.003 | tipifarnib -0.051 | mubritinib 0.031

SLC22A5 isoform 3 (UniProt O76082)
inactive: crizotinib 0.256 | [1] -0.252 | gandotinib -0.088 | doramapimod -0.001 | bafetinib 0.272 | [9] 0.051 | nilotinib -0.046 | [5] -0.051 | [6] -0.022 | tipifarnib 0.002

SLC26A2 (UniProt P50443)
inactive: crizotinib 0.051 | [1] 0.059 | duvelisib -0.174 | gandotinib -0.091 | [3] 0.06 | doramapimod 0.084 | [9] -0.286 | nilotinib 0.129 | [5] 0.083 | dasatinib -0.081 | [6] 0.107 | mubritinib -0.048

SLC66A2 (UniProt Q8N2U9)
inactive: [1] 0.136 | bafetinib -0.126 | nilotinib -0.049 | [5] 0.205 | [6] -0.057 | mubritinib -0.344

SLC10A7 isoform 1 (UniProt Q0GE19)
inactive: tozasertib 0 | ispinesib 0.16 | bafetinib 0.022 | nilotinib 0.063 | [5] -0.121 | [6] -0.256 | [7] -0.085 | tipifarnib -0.087 | mubritinib -0.038

SLC6A19 (UniProt Q695T7)
inactive: [2] -0.053 | duvelisib 0.156 | [3] -0.062 | dasatinib -0.014 | [4] -0.16 | tipifarnib 0.119 | mubritinib 0.093

SLC35C2 isoform 3 (UniProt Q9NQQ7)
inactive: crizotinib -0.049 | [1] 0.08 | [2] 0.104 | doramapimod 0.097 | ispinesib 0.039 | bafetinib -0.013 | nilotinib -0.181 | [5] 0.319 | [6] 0.077 | [4] -0.11 | [7] -0.029
